{
  "sequences": {"note": "Amino acid sequences for entries named in this document (tags omitted). A change or cut given only in a name is not applied to a line headed by its entry. Residues count along the entry.", "UniProt P13473, residues 29-410": "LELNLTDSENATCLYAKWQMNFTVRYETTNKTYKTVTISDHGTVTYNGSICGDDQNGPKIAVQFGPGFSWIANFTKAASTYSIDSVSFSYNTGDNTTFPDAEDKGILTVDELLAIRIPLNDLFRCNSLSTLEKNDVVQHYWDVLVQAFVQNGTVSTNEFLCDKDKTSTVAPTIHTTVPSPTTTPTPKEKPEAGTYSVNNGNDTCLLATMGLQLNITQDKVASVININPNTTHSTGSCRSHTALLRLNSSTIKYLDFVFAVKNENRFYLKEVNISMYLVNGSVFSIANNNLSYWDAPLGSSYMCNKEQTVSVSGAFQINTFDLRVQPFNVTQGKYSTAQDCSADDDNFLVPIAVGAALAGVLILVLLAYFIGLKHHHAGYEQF", "UniProt P49815": "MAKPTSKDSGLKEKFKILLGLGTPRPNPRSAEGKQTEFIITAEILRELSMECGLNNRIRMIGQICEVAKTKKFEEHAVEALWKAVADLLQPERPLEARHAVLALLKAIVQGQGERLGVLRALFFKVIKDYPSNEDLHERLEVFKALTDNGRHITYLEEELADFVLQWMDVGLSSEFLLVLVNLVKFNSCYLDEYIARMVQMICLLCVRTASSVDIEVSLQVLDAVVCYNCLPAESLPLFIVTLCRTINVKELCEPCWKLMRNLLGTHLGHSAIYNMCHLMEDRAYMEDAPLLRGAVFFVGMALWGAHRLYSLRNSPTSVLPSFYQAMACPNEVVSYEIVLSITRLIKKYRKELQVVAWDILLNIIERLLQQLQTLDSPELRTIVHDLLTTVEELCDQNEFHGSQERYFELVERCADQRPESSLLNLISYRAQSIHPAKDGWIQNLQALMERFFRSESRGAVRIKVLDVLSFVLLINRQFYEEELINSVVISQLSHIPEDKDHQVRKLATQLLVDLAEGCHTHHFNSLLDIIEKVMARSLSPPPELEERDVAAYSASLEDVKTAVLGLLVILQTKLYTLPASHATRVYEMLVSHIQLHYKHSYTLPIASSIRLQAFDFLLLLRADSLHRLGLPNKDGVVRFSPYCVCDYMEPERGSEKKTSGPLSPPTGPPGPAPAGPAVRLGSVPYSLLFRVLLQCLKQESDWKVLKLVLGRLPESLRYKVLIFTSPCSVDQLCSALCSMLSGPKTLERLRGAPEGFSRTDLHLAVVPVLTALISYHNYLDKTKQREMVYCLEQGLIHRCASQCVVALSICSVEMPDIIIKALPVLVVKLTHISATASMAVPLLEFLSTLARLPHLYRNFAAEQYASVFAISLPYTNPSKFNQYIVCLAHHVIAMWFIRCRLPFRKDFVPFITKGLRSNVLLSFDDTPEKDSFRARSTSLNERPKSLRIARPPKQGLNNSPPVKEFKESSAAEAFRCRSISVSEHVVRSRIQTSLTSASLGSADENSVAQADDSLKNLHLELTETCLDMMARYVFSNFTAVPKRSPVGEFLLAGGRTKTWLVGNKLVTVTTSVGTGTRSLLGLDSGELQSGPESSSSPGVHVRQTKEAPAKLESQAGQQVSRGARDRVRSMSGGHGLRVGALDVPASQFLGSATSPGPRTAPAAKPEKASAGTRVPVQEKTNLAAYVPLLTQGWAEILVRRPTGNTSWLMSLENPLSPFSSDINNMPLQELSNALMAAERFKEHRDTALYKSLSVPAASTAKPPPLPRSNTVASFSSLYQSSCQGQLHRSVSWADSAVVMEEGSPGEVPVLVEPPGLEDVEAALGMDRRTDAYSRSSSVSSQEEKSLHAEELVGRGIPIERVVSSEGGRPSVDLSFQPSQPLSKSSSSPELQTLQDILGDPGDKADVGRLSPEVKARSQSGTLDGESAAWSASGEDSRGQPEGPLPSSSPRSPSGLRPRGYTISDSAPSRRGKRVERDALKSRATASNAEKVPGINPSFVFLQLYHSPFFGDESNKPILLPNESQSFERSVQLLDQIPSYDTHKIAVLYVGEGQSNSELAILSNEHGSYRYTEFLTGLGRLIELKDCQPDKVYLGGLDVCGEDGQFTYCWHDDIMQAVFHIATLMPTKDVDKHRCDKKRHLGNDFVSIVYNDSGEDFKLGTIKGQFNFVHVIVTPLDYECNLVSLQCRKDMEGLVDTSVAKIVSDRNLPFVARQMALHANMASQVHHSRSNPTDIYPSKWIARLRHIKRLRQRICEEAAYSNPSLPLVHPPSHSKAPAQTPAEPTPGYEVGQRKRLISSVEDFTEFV", "UniProt Q13283": "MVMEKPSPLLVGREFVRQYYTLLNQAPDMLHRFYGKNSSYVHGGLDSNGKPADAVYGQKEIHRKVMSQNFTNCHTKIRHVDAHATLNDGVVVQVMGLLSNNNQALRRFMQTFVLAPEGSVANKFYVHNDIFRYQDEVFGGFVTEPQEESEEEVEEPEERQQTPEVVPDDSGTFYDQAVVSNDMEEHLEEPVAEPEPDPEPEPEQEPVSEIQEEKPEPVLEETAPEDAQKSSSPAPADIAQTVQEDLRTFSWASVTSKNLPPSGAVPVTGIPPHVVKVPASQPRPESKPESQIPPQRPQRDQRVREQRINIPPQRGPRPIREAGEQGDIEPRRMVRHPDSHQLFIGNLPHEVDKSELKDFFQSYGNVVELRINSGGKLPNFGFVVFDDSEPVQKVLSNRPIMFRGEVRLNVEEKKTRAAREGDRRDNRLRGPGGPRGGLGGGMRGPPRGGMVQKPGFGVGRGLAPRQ", "UniProt P49816": "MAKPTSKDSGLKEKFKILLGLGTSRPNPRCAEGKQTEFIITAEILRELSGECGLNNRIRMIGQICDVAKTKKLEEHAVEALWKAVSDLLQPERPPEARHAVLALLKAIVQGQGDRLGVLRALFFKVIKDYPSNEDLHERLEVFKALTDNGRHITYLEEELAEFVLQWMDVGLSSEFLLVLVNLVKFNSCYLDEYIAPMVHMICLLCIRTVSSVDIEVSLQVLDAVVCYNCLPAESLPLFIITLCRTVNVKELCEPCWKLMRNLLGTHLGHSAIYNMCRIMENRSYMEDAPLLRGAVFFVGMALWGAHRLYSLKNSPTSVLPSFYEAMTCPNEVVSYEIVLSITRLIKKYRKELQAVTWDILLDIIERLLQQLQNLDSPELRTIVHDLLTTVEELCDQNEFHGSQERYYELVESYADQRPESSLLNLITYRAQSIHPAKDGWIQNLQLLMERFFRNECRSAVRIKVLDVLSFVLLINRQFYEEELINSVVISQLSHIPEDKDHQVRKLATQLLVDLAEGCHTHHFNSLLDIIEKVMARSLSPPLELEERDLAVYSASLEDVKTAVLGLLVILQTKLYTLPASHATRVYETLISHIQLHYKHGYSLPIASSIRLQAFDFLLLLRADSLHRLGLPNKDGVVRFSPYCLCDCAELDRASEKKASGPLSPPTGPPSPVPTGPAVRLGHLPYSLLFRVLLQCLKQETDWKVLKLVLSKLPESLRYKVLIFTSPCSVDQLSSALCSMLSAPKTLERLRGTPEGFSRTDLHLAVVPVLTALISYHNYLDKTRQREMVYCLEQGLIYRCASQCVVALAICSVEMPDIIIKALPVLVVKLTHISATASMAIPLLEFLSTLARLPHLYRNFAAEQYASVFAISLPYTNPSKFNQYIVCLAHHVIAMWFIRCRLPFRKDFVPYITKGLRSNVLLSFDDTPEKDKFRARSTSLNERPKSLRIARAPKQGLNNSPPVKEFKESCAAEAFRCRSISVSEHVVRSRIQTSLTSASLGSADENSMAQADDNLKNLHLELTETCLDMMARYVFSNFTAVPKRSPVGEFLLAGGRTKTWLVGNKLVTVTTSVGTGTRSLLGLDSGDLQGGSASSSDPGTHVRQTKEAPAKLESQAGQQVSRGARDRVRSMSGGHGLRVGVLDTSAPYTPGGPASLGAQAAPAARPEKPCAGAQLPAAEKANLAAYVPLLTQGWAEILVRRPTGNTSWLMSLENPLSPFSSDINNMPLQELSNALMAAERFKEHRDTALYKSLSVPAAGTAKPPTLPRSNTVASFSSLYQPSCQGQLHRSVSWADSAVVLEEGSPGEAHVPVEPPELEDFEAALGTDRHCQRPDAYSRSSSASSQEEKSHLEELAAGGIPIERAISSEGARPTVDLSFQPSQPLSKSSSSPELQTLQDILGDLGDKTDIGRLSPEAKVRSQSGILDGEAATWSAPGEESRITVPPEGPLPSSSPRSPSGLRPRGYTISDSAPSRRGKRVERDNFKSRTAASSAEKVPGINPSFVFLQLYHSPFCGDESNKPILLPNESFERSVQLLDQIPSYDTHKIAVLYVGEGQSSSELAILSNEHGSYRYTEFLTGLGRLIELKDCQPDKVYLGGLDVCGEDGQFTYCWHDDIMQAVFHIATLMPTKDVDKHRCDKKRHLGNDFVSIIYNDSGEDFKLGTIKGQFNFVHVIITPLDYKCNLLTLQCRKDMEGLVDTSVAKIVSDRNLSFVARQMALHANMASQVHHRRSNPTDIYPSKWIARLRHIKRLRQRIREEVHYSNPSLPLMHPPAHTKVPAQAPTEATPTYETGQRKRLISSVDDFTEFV"},
  "source": "paper doi:10.1101/2020.04.16.044081",
  "key": {"[1]": {"target": "N-terminal mLumin fragment fused to LAMP2 (pGW-HA-LN151-LAMP2) (human) (UniProt P13473)", "experiment": "split reporter"}, "[2]": {"target": "N-terminal mLumin fragment fused to TSC2 (pGW-HA-LN151-TSC2) (human) (UniProt P49815)", "experiment": "split reporter"}, "[3]": {"target": "TSC2-GFP (full length) (human) (UniProt P49815)", "experiment": "co-IP"}, "[4]": {"target": "TSC2 (tuberin), endogenous human (human (endogenous in MCF-7, MDA-MB-231, HEK293T)) (UniProt P49815)", "experiment": "co-IP"}, "[5]": {"target": "TSC2 (tuberin), endogenous human (human (endogenous in MCF-7, MDA-MB-231, HEK293T)) (UniProt P49815)", "experiment": "proximity ligation"}, "[6]": {"target": "TSC2 (tuberin), endogenous human (human (endogenous in MCF-7, MDA-MB-231, HEK293T)) (UniProt P49815)", "experiment": "co-IP", "remark": "listed apart in the source"}, "[7]": {"target": "T1, TSC1, endogenous, rat brain (rat (endogenous in brain tissue)) (UniProt Q9Z136)", "T1 sequence": "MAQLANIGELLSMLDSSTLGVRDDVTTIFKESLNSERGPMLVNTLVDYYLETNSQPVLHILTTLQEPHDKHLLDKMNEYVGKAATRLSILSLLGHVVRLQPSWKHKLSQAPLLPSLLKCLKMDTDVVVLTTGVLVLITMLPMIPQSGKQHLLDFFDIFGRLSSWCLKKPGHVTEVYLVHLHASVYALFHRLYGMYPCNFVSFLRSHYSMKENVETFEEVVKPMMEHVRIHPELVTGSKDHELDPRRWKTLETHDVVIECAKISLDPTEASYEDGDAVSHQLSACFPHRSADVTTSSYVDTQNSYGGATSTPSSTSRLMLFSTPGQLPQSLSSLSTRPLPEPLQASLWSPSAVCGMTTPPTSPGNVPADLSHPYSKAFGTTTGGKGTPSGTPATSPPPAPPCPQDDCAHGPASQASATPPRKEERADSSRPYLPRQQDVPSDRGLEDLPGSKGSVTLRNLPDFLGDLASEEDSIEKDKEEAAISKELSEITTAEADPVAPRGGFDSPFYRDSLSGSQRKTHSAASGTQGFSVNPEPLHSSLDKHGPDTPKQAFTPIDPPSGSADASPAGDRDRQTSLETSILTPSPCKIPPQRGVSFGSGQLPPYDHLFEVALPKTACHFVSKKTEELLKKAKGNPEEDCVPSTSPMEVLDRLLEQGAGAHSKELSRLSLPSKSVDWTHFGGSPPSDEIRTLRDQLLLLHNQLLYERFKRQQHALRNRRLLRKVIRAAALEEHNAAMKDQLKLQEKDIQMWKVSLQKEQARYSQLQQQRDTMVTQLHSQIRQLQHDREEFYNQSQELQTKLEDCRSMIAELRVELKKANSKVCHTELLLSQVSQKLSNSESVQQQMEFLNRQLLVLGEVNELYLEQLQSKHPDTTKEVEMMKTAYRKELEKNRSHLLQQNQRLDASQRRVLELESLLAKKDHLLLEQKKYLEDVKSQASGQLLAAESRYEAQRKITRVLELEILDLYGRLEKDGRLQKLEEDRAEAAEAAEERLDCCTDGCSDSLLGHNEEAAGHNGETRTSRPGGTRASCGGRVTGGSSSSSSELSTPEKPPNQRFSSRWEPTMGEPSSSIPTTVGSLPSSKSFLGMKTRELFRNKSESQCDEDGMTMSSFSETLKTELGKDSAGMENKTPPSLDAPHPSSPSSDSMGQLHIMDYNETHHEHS", "experiment": "co-IP"}},
  "note": "No constants are given. Whether binding was seen depends on the method and setting. Binding seen in cells or lysates may run through a third protein. Some binding calls cover weakened binding; strength is not graded here.",
  "data": [
    {"substance": "G3BP1 fused to a C-terminal mLumin fragment (pGW-MYC-LC151-G3BP1) (from UniProt Q13283 1-466)", "values": [
      {"measurement": "binding", "setting": "[1]", "value": "binds"},
      {"measurement": "binding", "setting": "[2]", "value": "binds"}
    ]},
    {"substance": "G3BP1_(1-182)-MYC (from UniProt Q13283 1-182) (domain or fragment)", "values": [
      {"measurement": "binding", "setting": "[3]", "value": "no binding"}
    ]},
    {"substance": "G3BP1_(183-332)-MYC (from UniProt Q13283 183-332) (domain or fragment)", "values": [
      {"measurement": "binding", "setting": "[3]", "value": "binds weakly"}
    ]},
    {"substance": "G3BP1_(333-466)-MYC (from UniProt Q13283 333-466) (domain or fragment)", "values": [
      {"measurement": "binding", "setting": "[3]", "value": "binds"}
    ]},
    {"substance": "Ras GTPase-activating protein-binding protein 1 (G3BP1), endogenous human (from UniProt Q13283 1-466)", "values": [
      {"measurement": "binding", "setting": "[4]", "value": "binds"},
      {"measurement": "binding", "setting": "[5]", "value": "binds"},
      {"measurement": "binding", "setting": "[6]", "value": "binds"}
    ]},
    {"substance": "TSC2, endogenous, rat brain (from UniProt P49816 1-1809)", "values": [
      {"measurement": "binding", "setting": "[7]", "value": "binds"}
    ]},
    {"substance": "full length G3BP1_(1-466)-MYC (from UniProt Q13283 1-466)", "values": [
      {"measurement": "binding", "setting": "[3]", "value": "binds"}
    ]}
  ]
}
